Laboratory results published in publication PMC3894987.
Results are given in words; binding and its absence hold for the method and conditions named. In cells and extracts the contact can be indirect. Some results given as binding are weak or reduced against the parent protein; the word gives no strength. For part of these data: Sequences can lack the tags named with a protein.

Protein sequences, listed by entry. Tags and fused reporters are not part of them.
UniProt Q53GL0: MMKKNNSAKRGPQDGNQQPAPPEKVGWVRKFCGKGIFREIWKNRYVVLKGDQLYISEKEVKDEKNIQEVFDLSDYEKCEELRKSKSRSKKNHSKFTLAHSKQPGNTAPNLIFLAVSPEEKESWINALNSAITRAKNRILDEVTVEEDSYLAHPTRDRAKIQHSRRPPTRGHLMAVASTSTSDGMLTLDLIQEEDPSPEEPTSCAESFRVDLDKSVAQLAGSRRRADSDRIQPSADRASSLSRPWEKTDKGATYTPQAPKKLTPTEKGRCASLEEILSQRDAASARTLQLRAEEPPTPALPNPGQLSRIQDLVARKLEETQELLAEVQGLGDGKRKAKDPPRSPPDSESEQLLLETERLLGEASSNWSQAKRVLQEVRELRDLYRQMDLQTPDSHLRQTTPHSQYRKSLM
UniProt Q04759: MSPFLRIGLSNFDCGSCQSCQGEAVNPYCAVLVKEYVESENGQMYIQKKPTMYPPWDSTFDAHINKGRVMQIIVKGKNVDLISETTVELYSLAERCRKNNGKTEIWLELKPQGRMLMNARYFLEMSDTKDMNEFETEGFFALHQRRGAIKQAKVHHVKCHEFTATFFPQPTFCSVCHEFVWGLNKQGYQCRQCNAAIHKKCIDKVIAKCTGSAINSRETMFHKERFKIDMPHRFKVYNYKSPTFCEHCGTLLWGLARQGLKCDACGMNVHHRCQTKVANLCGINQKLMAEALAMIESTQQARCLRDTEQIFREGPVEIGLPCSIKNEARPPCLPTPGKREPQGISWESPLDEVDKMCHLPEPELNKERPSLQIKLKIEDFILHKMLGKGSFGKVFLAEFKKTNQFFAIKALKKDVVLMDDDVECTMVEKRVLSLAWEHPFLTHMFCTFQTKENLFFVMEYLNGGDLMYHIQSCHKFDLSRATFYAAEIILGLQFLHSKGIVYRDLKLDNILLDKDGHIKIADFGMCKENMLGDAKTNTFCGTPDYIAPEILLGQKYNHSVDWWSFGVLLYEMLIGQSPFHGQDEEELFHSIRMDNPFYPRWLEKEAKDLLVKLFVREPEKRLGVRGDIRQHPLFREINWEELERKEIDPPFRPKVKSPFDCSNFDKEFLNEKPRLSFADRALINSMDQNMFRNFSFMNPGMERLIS

Assays:
[1] = target: T1, Myc-CARMA1 (wild type), expressed in HEK293T (UniProt Q9BXL7); assay: co-IP; HEK293T co-transfected; lysis in 20 mM Tris-HCl pH 7.5, 250 mM NaCl, 1% NP-40; immunoprecipitated by anti-Myc antibody on Protein A beads for 6 hr; Western blot; with or without co-transfected CKIP-1 or PKCθ
T1 sequence: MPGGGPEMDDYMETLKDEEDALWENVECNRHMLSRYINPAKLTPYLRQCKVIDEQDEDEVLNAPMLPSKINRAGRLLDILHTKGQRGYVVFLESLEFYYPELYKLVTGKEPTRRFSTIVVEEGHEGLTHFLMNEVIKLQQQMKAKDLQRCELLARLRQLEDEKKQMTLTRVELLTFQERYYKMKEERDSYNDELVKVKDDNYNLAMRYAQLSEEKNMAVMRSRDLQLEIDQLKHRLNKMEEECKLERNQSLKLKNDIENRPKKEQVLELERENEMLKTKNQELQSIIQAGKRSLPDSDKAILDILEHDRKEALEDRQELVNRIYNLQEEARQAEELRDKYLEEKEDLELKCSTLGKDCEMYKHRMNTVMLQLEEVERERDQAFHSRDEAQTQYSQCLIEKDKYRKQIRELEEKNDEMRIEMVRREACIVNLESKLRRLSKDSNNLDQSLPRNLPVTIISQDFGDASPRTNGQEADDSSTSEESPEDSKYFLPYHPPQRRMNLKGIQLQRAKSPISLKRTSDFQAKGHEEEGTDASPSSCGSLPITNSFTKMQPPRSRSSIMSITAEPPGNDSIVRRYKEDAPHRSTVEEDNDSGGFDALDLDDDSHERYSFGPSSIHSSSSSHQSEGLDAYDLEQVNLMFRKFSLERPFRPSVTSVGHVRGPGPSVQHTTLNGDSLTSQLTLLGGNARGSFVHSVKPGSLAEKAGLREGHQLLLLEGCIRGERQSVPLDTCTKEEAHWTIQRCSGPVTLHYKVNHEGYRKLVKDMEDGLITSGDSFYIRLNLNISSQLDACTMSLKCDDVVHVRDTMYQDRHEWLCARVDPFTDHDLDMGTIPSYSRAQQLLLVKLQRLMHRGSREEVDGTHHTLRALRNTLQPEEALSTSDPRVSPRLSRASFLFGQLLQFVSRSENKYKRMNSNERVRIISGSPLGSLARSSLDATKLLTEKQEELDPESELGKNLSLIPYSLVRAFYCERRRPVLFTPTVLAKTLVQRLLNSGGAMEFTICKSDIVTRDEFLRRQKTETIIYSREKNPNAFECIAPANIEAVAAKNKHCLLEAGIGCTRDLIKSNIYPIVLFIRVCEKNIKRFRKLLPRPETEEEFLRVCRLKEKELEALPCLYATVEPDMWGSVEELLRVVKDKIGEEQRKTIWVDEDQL

[2] = target: T2, FLAG-CARMA1, expressed in HEK293T (UniProt Q9BXL7); assay: co-IP; HEK293T co-transfected; lysis in 20 mM Tris-HCl pH 7.5, 250 mM NaCl, 1% NP-40; immunoprecipitated by anti-FLAG antibody on Protein A beads for 6 hr; Western blot; with CKIP-1, its truncated forms or empty vector
T2 sequence: T1 sequence

[3] = target: casein kinase-2 interacting protein-1 (CKIP-1), untagged, expressed in HEK293T (human) (UniProt Q53GL0); assay: co-IP; HEK293T co-transfected; lysis in 20 mM Tris-HCl pH 7.5, 250 mM NaCl, 1% NP-40; immunoprecipitated by anti-CKIP-1 or control antibody on Protein A beads for 6 hr; Western blot

binding [1]: binds
binding [2]: binds
binding [3]: no binding
Substance: PKCθ WT, expressed in HEK293T (from UniProt Q04759 1-706) (enzyme)
